Measured values from PMC9170038, “Crowdsourced RNA design discovers diverse, reversible, efficient, self-contained molecular switches”.
pKd: −log10 of the molar value. Protein sequences can lack the tags named with them.

Target: T1, MS2 coat protein, dlFG mutant del68-81insG (Escherichia phage MS2) (UniProt P03612)
T1 sequence (looked up, limits assumed): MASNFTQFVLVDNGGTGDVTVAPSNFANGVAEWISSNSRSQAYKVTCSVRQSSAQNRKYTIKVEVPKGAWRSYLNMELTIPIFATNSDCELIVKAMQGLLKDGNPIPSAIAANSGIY
Experiment: binding assay
Settings: 4 mM Mg2+, RNA-MaP array, 100 mM Tris-HCl pH 7.5, 80 mM KCl, 4 mM MgCl2, 0.1 mg/mL BSA, 1 mM DTT, 0.01 mg/mL yeast tRNA, 0.01% Tween-20, protein 1.5 nM to 3 uM, 37 C (Table S3), purified recombinant protein

Sequence	pKd (no ligand)	further results
AAGUUUUUACAAGGAUAUCAUUUGUUUCUAAAUUCAACAUGAGGAUCACCCAUGUAACAAUGGAGUGAGAAGGUGUGUUGGCAA [Eterna 6116852 (Same State NG 2)]	< 5.52	
AGUAUGUACGCAGGAUAUACAUGAGGAUCACCCAUGUGGAACAGUGUAGUACUAGUUGAUCCUCAGUAGAAGGGCGGCCGAAUA [Eterna 6148107 (Exclusion NG 2)]	< 5.52	
AGUUACAGGAUAGGAUAUGGCGUGACAUGGCUGCCAGAAGGAUCCUCGGGAACAUGAGGAUCACCCAUGUGACCGUGUCGAGUC [Eterna 6148515 (Same State NG 1)]	< 5.52	
UACCGGCGGACCGAAGCUUUUUGCUUGUUUUAUACUACAACAUGAGGAUCACCCAUGUGGUGGUGGUCCGUUGUAGU [Eterna 13145 (Sensor v3, turn-off variant 2)]		pKd (miR-208a RNA 100 nM (AUAAGACGAGCAAAAAGCUUGU)): < 5.52
UGACUGGAUGGAAGGAGCGCUAAACUCCUAGUGAUGUUAGGGACAUGAGGCACAGCCUUGAAGCAGGUAGGUCGCCAUCUAGUCU [Eterna 7756304 (Same State - Arginine B)]		pKd (no ligand, variant of MS2 control): < 5.52
UGCGUGGUCACAGGAUAUGCAAGAUAAACUUUAGCAGAAGGGUGAUCAAUCAGCUCAAUACCACAUGAGGAUCACCCAUGUCUA [Eterna 6148559 (Same State NG 1)]	< 5.52	
UUUAGGAGUCAAGGAUAUGCUACCGUUUCGGUAGCAGAAGGUGAUCACAUGAGGAUCACCCAUGUAUGCAUGCGUGAGCGUGCU [Eterna 5940264 (Same State NG 1)]	< 5.52	
